Test results from patent EP0241232A1, “Isoxazolylethanol derivatives” (SHIONOGI SEIYAKU KABUSHIKI KAISHA, priority 1986, dated 1987).
At least one read-out could not be matched to a standard name with certainty.

System: Rhizoctonia solani
Assay: Control of cucumber damping-off by soil drench
Assay type: in vivo
Settings: 30 ml per cup, judged 15 days after inoculation
Procedure: Damping-off was observed 15 days after sowing, and disease degree and control effect were obtained from the following equations. [formula] [formula] where diseased seedlings included damping-off and unemerged'seeds due to infection. For the foliar diseases, disease development was observed 10 - 14 days after inoculation of spores, and control effect was obtained by the following index.
The test compound was dissolved in a small amount of acetone and suspended in demineralized distilled water containing a spreader, to a concentration of 125 ppm and 31 ppm. The soil sterilized by an autoclave was put into paper cups (diameter : 7.5 cm; depth : 6 cm) and cucumber seeds (c.v. : Matsukaze) were sown in the cups (10 seeds/pot). Then the soil surface was covered with the following soil containing pathogen. And then 30 ml of the formation of the test compound was applied to the soil in the cup.
Rhizoctonia solani incubated in a bran medium at 28 °C for 5 days was put into sterile soil and cultured for 24 hr. The inoculated soil was diluted with sterile soil to about 4 times volume. The soil surface in the cups containing cucumber seeds was covered with the soil containing Rhizoctonia solani.
Control effect was judged 15 days after inoculation and control percent was obtained as described in Experiment 3.

Work on `Cc1ccccc1C(=O)Nc1cccc(OC(C)C)c1` [Mepro-nil, reference compound] yielded a Control (soil drench 31 ppm) of 80% and a Control (soil drench 125 ppm) of 97%.
